Results are given in words; binding and its absence hold for the method and conditions named. Binding seen in cells or lysates may run through a third protein. Some entries that bind do so weakly or less than the wild type.
Columns and labels:
[1] = biological target: SRPK1 (human (endogenous in HT29)) (UniProt Q96SB4); experiment: co-IP; HT29 cells treated 48 h with DMSO or 500 μM ibuprofen, crosslinked with DSP and SPDP, lysed in 1% NP40 buffer; endogenous SRPK1 precipitated with anti-SRPK1 crosslinked to protein G agarose beads, overnight at 4°C; de-crosslinked with 100 mM DTT; Western blot
[2] = biological target: WNK1 (human (endogenous in HT29)) (UniProt Q9H4A3); experiment: co-IP; HT29 cells crosslinked with DSP and SPDP for 2 h, lysed in 1% NP40 buffer; endogenous WNK1 precipitated with anti-WNK1 crosslinked to protein G agarose beads, overnight at 4°C; de-crosslinked with 100 mM DTT; Western blot; cells untreated or treated 48 h with DMSO or 500 μM ibuprofen (less GSK3β and SRPK1 co-precipitated with ibuprofen)

Chains of the proteins cited; added tags and fusions are not shown.
UniProt Q96SB4: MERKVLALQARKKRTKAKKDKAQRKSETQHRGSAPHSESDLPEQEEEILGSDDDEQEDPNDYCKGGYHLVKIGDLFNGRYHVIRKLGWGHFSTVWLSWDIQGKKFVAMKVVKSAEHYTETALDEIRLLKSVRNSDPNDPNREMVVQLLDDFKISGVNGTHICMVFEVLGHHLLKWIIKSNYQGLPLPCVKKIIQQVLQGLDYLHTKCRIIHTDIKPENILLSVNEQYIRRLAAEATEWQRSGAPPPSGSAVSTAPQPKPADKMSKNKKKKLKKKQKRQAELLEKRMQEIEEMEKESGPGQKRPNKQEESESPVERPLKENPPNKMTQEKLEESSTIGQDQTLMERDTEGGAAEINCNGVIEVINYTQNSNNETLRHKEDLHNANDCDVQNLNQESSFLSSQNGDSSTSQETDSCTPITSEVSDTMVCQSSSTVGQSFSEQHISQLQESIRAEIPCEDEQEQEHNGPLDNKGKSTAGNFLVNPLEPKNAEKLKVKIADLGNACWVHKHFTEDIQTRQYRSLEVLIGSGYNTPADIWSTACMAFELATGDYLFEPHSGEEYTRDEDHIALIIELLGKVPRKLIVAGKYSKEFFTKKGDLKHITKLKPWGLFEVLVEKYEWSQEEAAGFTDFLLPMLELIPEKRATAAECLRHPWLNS
UniProt Q9H4A3: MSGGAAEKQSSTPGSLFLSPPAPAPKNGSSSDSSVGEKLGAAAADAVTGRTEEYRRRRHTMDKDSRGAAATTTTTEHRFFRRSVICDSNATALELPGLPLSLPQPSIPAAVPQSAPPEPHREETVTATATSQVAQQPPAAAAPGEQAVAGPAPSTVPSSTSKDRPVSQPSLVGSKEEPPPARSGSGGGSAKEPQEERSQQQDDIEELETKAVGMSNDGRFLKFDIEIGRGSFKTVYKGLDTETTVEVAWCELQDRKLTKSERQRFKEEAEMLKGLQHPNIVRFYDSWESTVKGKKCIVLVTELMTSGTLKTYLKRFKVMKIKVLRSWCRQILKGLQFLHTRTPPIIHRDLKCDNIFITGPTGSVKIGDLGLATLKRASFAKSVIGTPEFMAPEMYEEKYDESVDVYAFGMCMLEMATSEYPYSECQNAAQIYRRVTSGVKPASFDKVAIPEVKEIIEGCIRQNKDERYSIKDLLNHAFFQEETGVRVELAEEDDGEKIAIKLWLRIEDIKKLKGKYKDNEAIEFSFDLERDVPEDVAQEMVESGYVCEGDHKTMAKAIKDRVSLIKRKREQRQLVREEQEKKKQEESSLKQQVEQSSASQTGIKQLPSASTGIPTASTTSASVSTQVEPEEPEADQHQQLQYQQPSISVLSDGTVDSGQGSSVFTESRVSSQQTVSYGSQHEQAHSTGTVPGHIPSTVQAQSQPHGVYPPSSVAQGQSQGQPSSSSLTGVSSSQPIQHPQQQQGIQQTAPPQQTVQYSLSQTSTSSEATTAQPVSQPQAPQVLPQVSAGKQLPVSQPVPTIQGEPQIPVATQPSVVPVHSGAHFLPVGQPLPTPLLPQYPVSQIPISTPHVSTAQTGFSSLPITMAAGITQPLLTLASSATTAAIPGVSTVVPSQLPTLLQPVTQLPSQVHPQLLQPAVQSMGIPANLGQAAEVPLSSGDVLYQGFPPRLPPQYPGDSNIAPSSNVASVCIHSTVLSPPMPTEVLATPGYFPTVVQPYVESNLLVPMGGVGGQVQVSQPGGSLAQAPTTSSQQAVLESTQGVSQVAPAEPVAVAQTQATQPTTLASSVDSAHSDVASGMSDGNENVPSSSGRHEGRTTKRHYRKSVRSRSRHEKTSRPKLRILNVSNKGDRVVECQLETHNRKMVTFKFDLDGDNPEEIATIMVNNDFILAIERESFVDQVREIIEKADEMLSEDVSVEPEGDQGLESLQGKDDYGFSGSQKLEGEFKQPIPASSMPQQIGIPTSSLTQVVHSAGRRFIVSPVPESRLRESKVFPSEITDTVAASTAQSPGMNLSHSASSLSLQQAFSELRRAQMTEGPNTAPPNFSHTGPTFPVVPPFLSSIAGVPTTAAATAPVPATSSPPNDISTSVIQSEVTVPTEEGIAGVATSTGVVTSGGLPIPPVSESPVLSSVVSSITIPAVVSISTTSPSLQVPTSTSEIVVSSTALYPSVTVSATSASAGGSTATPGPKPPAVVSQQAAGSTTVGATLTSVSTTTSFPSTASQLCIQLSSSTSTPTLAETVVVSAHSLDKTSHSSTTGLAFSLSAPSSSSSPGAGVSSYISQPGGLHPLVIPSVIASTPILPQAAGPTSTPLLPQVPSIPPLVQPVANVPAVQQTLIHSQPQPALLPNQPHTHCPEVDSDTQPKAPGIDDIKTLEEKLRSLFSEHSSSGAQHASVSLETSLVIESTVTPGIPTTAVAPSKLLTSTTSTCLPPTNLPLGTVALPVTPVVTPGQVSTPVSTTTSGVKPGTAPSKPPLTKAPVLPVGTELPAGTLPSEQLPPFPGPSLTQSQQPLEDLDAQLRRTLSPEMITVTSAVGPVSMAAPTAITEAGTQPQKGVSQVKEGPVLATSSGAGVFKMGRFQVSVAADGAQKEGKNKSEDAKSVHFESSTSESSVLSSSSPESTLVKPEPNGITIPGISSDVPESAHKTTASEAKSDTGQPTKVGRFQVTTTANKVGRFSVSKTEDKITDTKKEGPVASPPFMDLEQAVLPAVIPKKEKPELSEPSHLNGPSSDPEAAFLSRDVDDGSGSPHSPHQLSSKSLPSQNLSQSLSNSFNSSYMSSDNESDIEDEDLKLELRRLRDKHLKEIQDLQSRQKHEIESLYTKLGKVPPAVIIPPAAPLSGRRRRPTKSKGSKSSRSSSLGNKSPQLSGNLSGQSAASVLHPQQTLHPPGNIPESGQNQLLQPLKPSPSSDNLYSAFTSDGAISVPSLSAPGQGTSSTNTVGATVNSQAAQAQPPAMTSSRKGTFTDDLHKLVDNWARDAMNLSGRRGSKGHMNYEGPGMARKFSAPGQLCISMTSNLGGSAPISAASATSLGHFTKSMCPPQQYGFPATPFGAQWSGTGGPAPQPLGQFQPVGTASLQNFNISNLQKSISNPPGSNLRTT
UniProt P49841: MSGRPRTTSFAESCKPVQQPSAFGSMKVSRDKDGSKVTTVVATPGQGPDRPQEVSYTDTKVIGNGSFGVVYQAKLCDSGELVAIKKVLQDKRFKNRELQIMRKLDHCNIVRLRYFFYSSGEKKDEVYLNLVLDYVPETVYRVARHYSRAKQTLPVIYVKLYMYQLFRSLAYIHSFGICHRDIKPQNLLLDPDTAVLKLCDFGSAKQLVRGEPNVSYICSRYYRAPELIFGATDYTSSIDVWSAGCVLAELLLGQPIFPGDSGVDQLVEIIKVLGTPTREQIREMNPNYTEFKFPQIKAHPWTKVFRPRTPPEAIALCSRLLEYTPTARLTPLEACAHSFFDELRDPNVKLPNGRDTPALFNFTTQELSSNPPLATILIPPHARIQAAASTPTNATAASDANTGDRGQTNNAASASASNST

## GSK3β (from UniProt P49841 1-420) (enzyme)
[1]
  binding: binds
[2]
  binding: binds

## SRPK1 (from UniProt Q96SB4 1-655) (enzyme)
[2]
  binding: binds

## WNK1 (from UniProt Q9H4A3 1-2382) (enzyme)
[1]
  binding: binds
